No constants are given. Whether binding was seen depends on the method and setting. For some assays here: In cells and extracts the contact can be indirect. Some results given as binding are weak or reduced against the parent protein; the word gives no strength. Sequences can lack the tags named with a protein.
T1: T7-tagged RBD27-WT (mouse) (UniProt Q99N50)
T1 sequence: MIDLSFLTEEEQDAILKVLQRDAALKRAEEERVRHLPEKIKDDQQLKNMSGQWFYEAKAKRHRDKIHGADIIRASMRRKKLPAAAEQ

T2: T7–GST–RBD27 (mouse) (UniProt Q99N50)
T2 sequence: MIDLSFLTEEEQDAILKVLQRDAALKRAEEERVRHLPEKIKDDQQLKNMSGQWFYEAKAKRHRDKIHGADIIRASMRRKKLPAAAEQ


Columns and labels:
[1] = molecular target: T1, T7-tagged RBD27-WT (mouse); assay: co-IP; lysates of COS-7 cells with T7–RBD27 (WT or mutant) or FLAG–Rab27A incubated 1 h at 4°C with anti-T7 tag antibody-conjugated agarose beads; lysis buffer 50 mM HEPES-KOH pH 7.2, 250 mM NaCl, 1 mM MgCl2, 1% Triton X-100, 0.5 mM GTPγS; immunoblotting
[2] = molecular target: T2, T7–GST–RBD27 (mouse); assay: pull-down; anti-T7 tag antibody-conjugated agarose beads coupled with T7–GST–RBD27 incubated 1 h at 4°C with 10 μg purified GST–Rab27A in 50 mM HEPES-KOH pH 7.2, 150 mM NaCl, 1 mM MgCl2, 0.5 mM GTPγS, 0.1% Triton X-100; CBB staining; both purified

| binding [1] | binding [2] | Binder |
| --- | --- | --- |
| binds | – | FLAG-tagged Rab27A (protein, UniProt Q9ERI2 1-221) MSDGDYDYLIKFLALGDSGVGKTSVLYQYTDGKFNSKFITTVGIDFREKRVVYRANGPDGAVGRGQRIHLQLWDTAGQERFRSLTTAFFRDAMGFLLLFDLTNEQSFLNVRNWISQLQMHAYCENPDIVLCGNKSDLEDQRAVKEEEARELAEKYGIPYFETSAANGTNISHAIEMLLDLIMKRMERCVDKSWIPEGVVRSNGHTSADQLSEEKEKGLCGC |
| – | binds | GST–Rab27A (protein, UniProt Q9ERI2 1-221) MSDGDYDYLIKFLALGDSGVGKTSVLYQYTDGKFNSKFITTVGIDFREKRVVYRANGPDGAVGRGQRIHLQLWDTAGQERFRSLTTAFFRDAMGFLLLFDLTNEQSFLNVRNWISQLQMHAYCENPDIVLCGNKSDLEDQRAVKEEEARELAEKYGIPYFETSAANGTNISHAIEMLLDLIMKRMERCVDKSWIPEGVVRSNGHTSADQLSEEKEKGLCGC |

— paper PMC12188314
